Test results: the supplement of paper PMC10849652
The other results are listed elsewhere or left out. Residues, ends and D or L forms follow the SMILES beside them. *: point of attachment. Cbz = O=C(OCc1ccccc1)*

Chains of the proteins cited; added tags and fusions are not shown. Lines headed by an entry give the natural chain unless they say otherwise; changes in a name come on top.
UniProt Q96EY8: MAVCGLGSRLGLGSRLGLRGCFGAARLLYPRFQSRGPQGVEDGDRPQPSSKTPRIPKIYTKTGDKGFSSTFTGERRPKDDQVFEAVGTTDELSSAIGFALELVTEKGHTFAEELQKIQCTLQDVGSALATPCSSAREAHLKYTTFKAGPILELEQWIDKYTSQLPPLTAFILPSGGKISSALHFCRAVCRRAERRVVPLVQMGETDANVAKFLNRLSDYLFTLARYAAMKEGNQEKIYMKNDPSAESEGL
UniProt Q99797: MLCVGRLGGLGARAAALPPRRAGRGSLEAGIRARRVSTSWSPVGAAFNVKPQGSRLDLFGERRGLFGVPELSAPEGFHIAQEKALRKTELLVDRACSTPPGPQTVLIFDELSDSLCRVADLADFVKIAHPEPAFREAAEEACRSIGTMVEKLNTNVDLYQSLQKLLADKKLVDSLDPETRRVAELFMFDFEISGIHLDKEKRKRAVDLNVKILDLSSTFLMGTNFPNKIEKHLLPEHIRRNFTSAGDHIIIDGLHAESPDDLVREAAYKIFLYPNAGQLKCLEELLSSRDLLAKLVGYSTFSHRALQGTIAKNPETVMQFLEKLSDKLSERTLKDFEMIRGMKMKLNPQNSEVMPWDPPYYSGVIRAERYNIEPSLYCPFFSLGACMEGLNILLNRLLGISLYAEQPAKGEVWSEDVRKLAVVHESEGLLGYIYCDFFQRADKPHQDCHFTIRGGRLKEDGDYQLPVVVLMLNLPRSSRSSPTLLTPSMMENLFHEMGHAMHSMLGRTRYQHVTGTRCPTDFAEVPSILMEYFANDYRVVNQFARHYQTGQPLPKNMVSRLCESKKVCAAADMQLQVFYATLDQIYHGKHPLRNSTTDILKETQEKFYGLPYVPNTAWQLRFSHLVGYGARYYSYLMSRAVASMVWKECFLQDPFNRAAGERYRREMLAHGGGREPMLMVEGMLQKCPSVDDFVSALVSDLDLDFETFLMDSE
UniProt Q9NZW5: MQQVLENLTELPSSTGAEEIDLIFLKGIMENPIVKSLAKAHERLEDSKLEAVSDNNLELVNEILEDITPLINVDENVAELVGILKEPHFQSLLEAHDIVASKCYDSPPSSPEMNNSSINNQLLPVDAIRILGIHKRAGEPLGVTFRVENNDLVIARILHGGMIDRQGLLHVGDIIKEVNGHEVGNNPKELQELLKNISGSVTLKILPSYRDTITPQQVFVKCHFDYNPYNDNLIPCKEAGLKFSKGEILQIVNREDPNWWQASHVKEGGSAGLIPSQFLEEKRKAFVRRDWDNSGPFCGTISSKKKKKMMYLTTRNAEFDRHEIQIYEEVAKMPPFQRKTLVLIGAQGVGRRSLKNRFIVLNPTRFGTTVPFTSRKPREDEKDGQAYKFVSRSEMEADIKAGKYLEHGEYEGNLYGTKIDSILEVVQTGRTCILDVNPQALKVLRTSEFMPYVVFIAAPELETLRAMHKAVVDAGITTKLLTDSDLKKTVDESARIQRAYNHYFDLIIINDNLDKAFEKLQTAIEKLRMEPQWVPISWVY
UniProt Q99547: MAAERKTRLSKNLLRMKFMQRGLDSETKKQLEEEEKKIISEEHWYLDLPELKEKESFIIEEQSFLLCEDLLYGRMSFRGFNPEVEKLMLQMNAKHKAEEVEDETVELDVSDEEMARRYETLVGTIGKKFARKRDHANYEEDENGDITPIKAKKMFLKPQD
UniProt Q6IN84: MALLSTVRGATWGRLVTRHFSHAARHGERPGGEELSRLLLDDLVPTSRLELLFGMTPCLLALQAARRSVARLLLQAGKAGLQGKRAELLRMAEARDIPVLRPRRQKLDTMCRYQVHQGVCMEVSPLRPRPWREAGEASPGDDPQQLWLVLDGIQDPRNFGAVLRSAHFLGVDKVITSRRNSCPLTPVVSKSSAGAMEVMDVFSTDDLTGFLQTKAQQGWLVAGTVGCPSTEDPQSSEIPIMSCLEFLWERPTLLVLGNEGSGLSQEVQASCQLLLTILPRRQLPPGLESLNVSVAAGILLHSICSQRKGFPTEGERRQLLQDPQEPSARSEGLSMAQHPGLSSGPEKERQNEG
UniProt Q7L9L4: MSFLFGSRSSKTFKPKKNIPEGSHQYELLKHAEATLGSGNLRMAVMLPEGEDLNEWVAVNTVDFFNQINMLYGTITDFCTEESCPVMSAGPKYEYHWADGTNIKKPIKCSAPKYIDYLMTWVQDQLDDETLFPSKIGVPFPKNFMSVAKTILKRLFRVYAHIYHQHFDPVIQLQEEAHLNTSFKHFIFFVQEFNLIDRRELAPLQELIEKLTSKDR

Columns and labels:
Assay in all cases: log2 fold change, soluble protein after heating vs DMSO (PISA); higher = thermal stabilisation; K562 cells, 10 uM, 30 min; active = over 0.2 and 3.5 SD of the protein, either way, in both replicates (recomputed)
erlotinib = compound: C#Cc1cccc(Nc2ncnc3cc(OCCOC)c(OCCOC)cc23)c1 [erlotinib]
Outline: (§1)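 Soluble protein was quantified by TMTpro 16plex LC-MS/MS after channel sums were equalised. It was obtained as the supernatant after 21,000xg for 90 min from pooled aliquots of K562 cells (2×10^6 cells/mL, 10 μM compound, 30 min) heated for 3 min across 48°C-58°C and extracted in PBS with 0.5% NP-40 at 4°C. Thermal stability values are relative to control samples and come from duplicates. They are given as log2 fold changes.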

[1] = compound: C/C(=N\NC(=O)C1=CC(=CC=C1)S(=O)(=O)N2CCOCC2)/C3=C(C=CC(=C3)Cl)O
Outline: as §1

[2] = compound: C1=CC(=C(C=C1Cl)C2=NC3=NC=CN=C3C(=N2)NC4=CC=NC=C4)F
Outline: as §1

[3] = compound: C1=CC(=CC=C1C2=NC3=C(N2)C=C(C=C3)C(=O)N)OC4=CC=C(C=C4)Cl
Outline: as §1

[4] = compound: C1=CC2=C(C=CC(=C2)/C=C\3/C(=O)NC(=NCC4=CC=CS4)S3)N=C1
Outline: as §1

[5] = compound: C1=CC2=NC=CN=C2C=C1/C=C/3\C(=O)NC(=O)S3
Outline: as §1

[6] = compound: C1=CC=C(C=C1)C2=NC(=C(N2)C3=CC=NC=C3)C4=CC(=C(C=C4)Cl)O
Outline: as §1

[7] = compound: C1=CC=C2C(=C1)C3=NNC4=CC=CC(=C43)C2=O
Outline: as §1

[8] = compound: C1CCN(C1)C(=O)NC2=CC=CC(=C2)NC3=NC=C(C(=N3)NCCC4=CN=CN4)Br
Outline: as §1

[9] = compound: C1CN(CCC1(CC2=CC=C(C=C2)Cl)N)C3=NC=NC4=C3C=CN4
Outline: as §1

IRAK-1-4 Inhibitor I = compound: C1COCCN1CCN2C3=CC=CC=C3N=C2NC(=O)C4=CC(=CC=C4)[N+](=O)[O-] [IRAK-1-4 Inhibitor I]
Outline: as §1

ibrutinib = compound: C=CC(=O)N1CCC[C@@H](n2nc(-c3ccc(Oc4ccccc4)cc3)c3c(N)ncnc32)C1 [ibrutinib]
Outline: as §1

[10] = compound: CC(=O)c1cnc2ccc(-c3cc(Cl)c(O)c(Cl)c3)nc2c1N[C@H]1CC[C@H](CN(C)C)CC1
Outline: as §1

ralimetinib = compound: CC(C)(C)Cn1c(N)nc2ccc(-c3[nH]c(C(C)(C)C)nc3-c3ccc(F)cc3)nc21 [ralimetinib]
Outline: as §1

[11] = compound: CC(C)(O)CC(=O)NCCn1ccc2ncnc(Nc3ccc(Oc4cccc(C(F)(F)F)c4)c(Cl)c3)c21
Outline: as §1

[12] = compound: CC(C)C1=C2N=C(C=C(N2N=C1)NCC3=CC=CC=C3)NCCCCCCN
Outline: as §1

[13] = compound: CC(C)C[C@@H](C=O)NC(=O)[C@H](CC(C)C)NC(=O)[C@H](CC(C)C)NC(=O)OCc1ccccc1
Outline: as §1

pinometostat = compound: CC(C)N(C[C@H]1O[C@@H](n2cnc3c(N)ncnc32)[C@H](O)[C@@H]1O)[C@H]1C[C@@H](CCc2nc3cc(C(C)(C)C)ccc3[nH]2)C1 [pinometostat]
Outline: as §1

[14] = compound: CC1=C(C(CC(=O)N1)C2=CC=C(C=C2)C(F)(F)F)C(=O)NC3=C(C=C4C(=C3)C=NN4)F
Outline: as §1

[15] = compound: CC1=C(C2=C(C=C1)C(=O)C3=CC=CC=C3N2CCCN)C
Outline: as §1

Measured: log2 fold change

MRPL33 (UniProt O75394)
inactive: erlotinib -0.117 | [1] 0.033 | [2] -0.278 | [3] 0.104 | [4] -0.135 | [5] -0.064 | [6] 0.025 | [7] 0.078 | [8] -0.099 | [9] -0.236 | IRAK-1-4 Inhibitor I -0.08 | ibrutinib 0.093 | [10] 0.069 | ralimetinib 0.062 | [11] -0.14 | [12] 0 | [13] 0.071 | pinometostat 0.072 | [14] -0.052 | [15] 0.17

MMAB (UniProt Q96EY8)
inactive: erlotinib 0 | [1] 0.006 | [2] 0.017 | [3] -0.03 | [4] 0.029 | [5] -0.008 | [6] -0.018 | [7] -0.05 | [8] 0.035 | [9] 0.023 | IRAK-1-4 Inhibitor I 0.04 | ibrutinib 0.018 | [10] 0.008 | ralimetinib -0.077 | [11] -0.026 | [12] -0.003 | [13] 0 | pinometostat -0.046 | [14] 0.01 | [15] -0.003

MIPEP (UniProt Q99797)
inactive: erlotinib 0.005 | [1] 0 | [2] 0.092 | [3] 0.028 | [4] 0.055 | [5] 0.013 | [6] -0.021 | [7] -0.005 | [8] -0.025 | [9] 0.077 | IRAK-1-4 Inhibitor I 0.008 | ibrutinib 0.005 | [10] -0.053 | ralimetinib -0.109 | [11] -0.06 | [12] -0.009 | [13] 0.014 | pinometostat -0.053 | [14] -0.016 | [15] 0.042

MPP6 (UniProt Q9NZW5)
inactive: erlotinib 0.015 | [1] 0.029 | [2] 0.053 | [3] 0.01 | [4] 0.011 | [5] -0.005 | [6] -0.058 | [7] -0.07 | [8] -0.034 | [9] 0.025 | IRAK-1-4 Inhibitor I -0.01 | ibrutinib -0.016 | [10] -0.197 | ralimetinib -0.049 | [11] -0.024 | [12] 0.057 | [13] 0.048 | pinometostat 0.01 | [14] -0.009 | [15] 0.05

MRPL48 (UniProt Q96GC5)
inactive: erlotinib -0.202 | [1] -0.023 | [2] -0.142 | [3] 0.068 | [4] -0.097 | [5] 0 | [6] -0.038 | [7] 0.283 | [8] 0.004 | [9] -0.289 | IRAK-1-4 Inhibitor I -0.158 | ibrutinib -0.032 | [10] 0.011 | ralimetinib 0.046 | [11] 0.062 | [12] 0.009 | [13] 0.062 | pinometostat 0.106 | [14] 0.011 | [15] -0.034

MPHOSPH6 (UniProt Q99547)
inactive: erlotinib 0.083 | [1] -0.036 | [2] -0.233 | [3] -0.007 | [4] -0.003 | [5] 0.014 | [6] 0.011 | [7] 0.009 | [8] -0.046 | [9] -0.156 | IRAK-1-4 Inhibitor I -0.221 | ibrutinib -0.009 | [10] -0.033 | ralimetinib 0.004 | [11] 0.017 | [12] -0.114 | [13] 0.162 | pinometostat 0.101 | [14] -0.035 | [15] 0

MRPL16 (UniProt Q9NX20)
inactive: erlotinib -0.168 | [1] -0.112 | [2] -0.073 | [3] 0.051 | [4] -0.026 | [5] 0.011 | [6] -0.006 | [7] 0.073 | [8] -0.027 | [9] -0.196 | IRAK-1-4 Inhibitor I -0.053 | ibrutinib -0.032 | [10] 0.151 | ralimetinib 0.102 | [11] 0.037 | [12] 0.039 | [13] 0.083 | pinometostat 0.148 | [14] 0.064 | [15] -0.163

Reprinted at random: 2 records from the list.
MPP6 (UniProt Q9NZW5)
inactive: erlotinib 0.015 | [1] 0.029 | [2] 0.053 | [3] 0.01 | [4] 0.011 | [5] -0.005 | [6] -0.058 | [7] -0.07 | [8] -0.034 | [9] 0.025 | IRAK-1-4 Inhibitor I -0.01 | ibrutinib -0.016 | [10] -0.197 | ralimetinib -0.049 | [11] -0.024 | [12] 0.057 | [13] 0.048 | pinometostat 0.01 | [14] -0.009 | [15] 0.05

MPHOSPH6 (UniProt Q99547)
inactive: erlotinib 0.083 | [1] -0.036 | [2] -0.233 | [3] -0.007 | [4] -0.003 | [5] 0.014 | [6] 0.011 | [7] 0.009 | [8] -0.046 | [9] -0.156 | IRAK-1-4 Inhibitor I -0.221 | ibrutinib -0.009 | [10] -0.033 | ralimetinib 0.004 | [11] 0.017 | [12] -0.114 | [13] 0.162 | pinometostat 0.101 | [14] -0.035 | [15] 0

(next part)

MRM1 (UniProt Q6IN84)
inactive: erlotinib -0.098 | [1] -0.141 | [2] -0.345 | [3] 0.127 | [4] -0.097 | [5] 0.012 | [6] -0.04 | [7] 0.022 | [8] 0.035 | [9] -0.127 | IRAK-1-4 Inhibitor I -0.042 | ibrutinib 0.03 | [10] 0.056 | ralimetinib 0.036 | [11] 0.095 | [12] -0.059 | [13] 0.044 | pinometostat 0.118 | [14] 0.058 | [15] -0.183

MRPL14 (UniProt Q6P1L8)
inactive: erlotinib -0.013 | [1] 0.018 | [2] 0.098 | [3] -0.007 | [4] -0.109 | [5] 0.017 | [6] -0.002 | [7] 0.051 | [8] -0.021 | [9] -0.056 | IRAK-1-4 Inhibitor I 0.007 | ibrutinib -0.047 | [10] -0.005 | ralimetinib -0.027 | [11] -0.101 | [12] -0.049 | [13] 0.147 | pinometostat -0.118 | [14] -0.012 | [15] 0.103

MRPL13 (UniProt Q9BYD1)
inactive: erlotinib -0.101 | [1] -0.08 | [2] -0.087 | [3] 0.037 | [4] -0.019 | [5] -0.053 | [6] 0.124 | [7] 0.075 | [8] 0.038 | [9] -0.14 | IRAK-1-4 Inhibitor I -0.069 | ibrutinib -0.035 | [10] 0.006 | ralimetinib 0.084 | [11] 0.019 | [12] 0.063 | [13] 0.076 | pinometostat 0.169 | [14] 0.117 | [15] -0.018

MRPL40 (UniProt Q9NQ50)
inactive: erlotinib -0.143 | [1] -0.094 | [2] -0.155 | [3] 0.055 | [4] 0.046 | [5] 0.014 | [6] 0.084 | [7] 0.074 | [8] -0.023 | [9] -0.141 | IRAK-1-4 Inhibitor I -0.012 | ibrutinib -0.032 | [10] 0.027 | ralimetinib -0.023 | [11] 0.065 | [12] 0.013 | [13] 0.224 | pinometostat 0.137 | [14] 0.052 | [15] -0.037

MRPL43 isoform 4 (UniProt Q8N983)
inactive: erlotinib -0.154 | [1] -0.061 | [2] -0.139 | [3] 0.09 | [4] 0.004 | [5] -0.056 | [6] -0.021 | [7] 0.067 | [8] -0.11 | [9] -0.278 | IRAK-1-4 Inhibitor I -0.042 | ibrutinib -0.003 | [10] 0.117 | ralimetinib 0.001 | [11] 0.023 | [12] 0.014 | [13] 0.067 | pinometostat 0.14 | [14] 0.128 | [15] -0.103

MOB1B isoform 2 (UniProt Q7L9L4)
inactive: erlotinib 0.019 | [1] -0.004 | [2] 0.054 | [3] 0.013 | [4] 0.018 | [5] 0.029 | [6] -0.023 | [7] -0.02 | [8] 0.027 | [9] 0.047 | IRAK-1-4 Inhibitor I 0.072 | ibrutinib -0.016 | [10] 0.002 | ralimetinib -0.069 | [11] -0.02 | [12] 0.002 | [13] 0 | pinometostat -0.021 | [14] -0.005 | [15] -0.051

MRPL19 (UniProt P49406)
inactive: erlotinib -0.277 | [1] -0.039 | [2] -0.166 | [3] 0.116 | [4] -0.065 | [5] 0.014 | [6] 0.012 | [7] 0.19 | [8] -0.037 | [9] -0.241 | IRAK-1-4 Inhibitor I -0.082 | ibrutinib -0.029 | [10] 0.108 | ralimetinib 0.086 | [11] 0.016 | [12] 0.036 | [13] 0.056 | pinometostat 0.158 | [14] 0.016 | [15] -0.032

MRPL20 (UniProt Q9BYC9)
inactive: erlotinib -0.106 | [1] -0.14 | [2] -0.153 | [3] 0.065 | [4] -0.056 | [5] 0 | [6] 0.047 | [7] 0.12 | [8] 0.003 | [9] -0.11 | IRAK-1-4 Inhibitor I -0.157 | ibrutinib -0.002 | [10] 0.11 | ralimetinib 0.005 | [11] 0.06 | [12] 0.007 | [13] 0.075 | pinometostat 0.189 | [14] -0.009 | [15] -0.059

MRPL35 (UniProt Q9NZE8)
inactive: erlotinib -0.102 | [1] -0.104 | [2] -0.268 | [3] 0.158 | [4] -0.05 | [5] -0.041 | [6] 0.048 | [7] 0.097 | [8] 0.105 | [9] -0.157 | IRAK-1-4 Inhibitor I -0.021 | ibrutinib -0.03 | [10] 0.077 | ralimetinib 0.109 | [11] 0 | [12] -0.046 | [13] 0.059 | pinometostat 0.131 | [14] 0.026 | [15] -0.1
